Source: publication PMC11653243, “Enhancing Phototoxicity in BODIPY‐Perylene Charge Transfer Dyads by Combined Iodination and Mesylation” (Chemistry (Weinheim an Der Bergstrasse, Germany), 2024)
Several values for one entry are separate records, joined by “and”; a condition that tells them apart may be missing. Equal entries are not always repeated.

Assays:
[1] = test system: CHO cells; experiment: Cellular uptake and co-localisation by confocal microscopy; format: cell-based, Chinese Hamster; conditions: for Pearson Coefficient (r) with BODIPY 493/503 / Pearson Coefficient (r) with LysoTracker Deep Red / Pearson Coefficient (r) with PyLa-C17Cer: CHO; for Pearson Coefficient (r) with BODIPY 493/503: BODIPY 493/503 2 µM, 30 min; for Pearson Coefficient (r) with LysoTracker Deep Red: LysoTracker Deep Red 100 nM, 1 h; for Pearson Coefficient (r) with PyLa-C17Cer: PyLa-C17Cer 2 µM, 2 hours
Experimental: (§1) The intracellular uptake of the BODIPY derivatives was assessed in two mammalian cell lines, CHO (non‐cancer) and MCF‐7 (cancer). […] B2P and B2PI were studied following 4 h and 17 h incubation in MCF‐7 cells with 10 μM of each BODIPY derivative. A 17 h incubation was selected to allow for adequate cell uptake of the complex, ensuring sufficient brightness for confocal imaging while minimising cell toxicity.
(§2) Across all four compounds uptake of the BODIPYs led to extremely bright and highly punctate staining from within the cells. As all of the BODIPY‐perylene probes emit minimally from aqueous media including cell culture media (Figure S20) the bright emission is attributed to localisation of the complex to non‐aqueous domains, i. e. organelle membranes or to lipid droplets (LDs). To identify which, co‐localisation studies with targeted probes were completed. CHO and MCF‐7 cells were treated with B2P, B2PI, MB2P or MB2PI and co‐stained with specific organelle markers including LD probes; PyLa−C17Cer and BODIPY 493/503, an endoplasmic reticulum stain; ER Tracker Blue‐White and a lysosomal stain; LysoTracker Deep Red. Pyla‐C17Cer was previously published and localises in both the ER and LDs.[41] Cellular uptake of B2PI was recently reported in MCF‐7 cells, though localisation was not explored.[25]
(§3) MCF‐7 and CHO cells were treated with B2P, MB2P, B2PI or MB2PI for 17 h and co‐stained with a number of dyes for co‐staining including LysoTracker Deep Red, ER Tracker Blue/White, PyLa−C17Cer, BODIPY 493/503 and H2DCFDA. Cells were imaged in phenol red free media using a Leica DMi8 confocal microscope with a 63x or 100x oil immersion lens and a heated state at 37 °C.
(§4) Uptake in Live Cell Monolayers
(§5) CHO cells were incubated in 75cm2 cell culture flasks (Corning) with DMEM/F-12 Ham medium (Sigma-Aldrich) with L-glutamine and sodium bicarbonate supplemented with 10% fetal bovine serum (FBS) (Gibco) and 1% penicillin-streptomycin (Sigma-Aldrich). MCF-7 cells were incubated in 25cm2 cell culture flasks with RPMI-1640 medium (Sigma-Aldrich) with L-glutamine and sodium bicarbonate supplemented with 10% fetal bovine serum (FBS, Gibco) and 1% penicillin-streptomycin. Cells were incubated at 37 °C with 5% CO2 and detached from the flask at 90% confluency using a 1X Trypsin-EDTA solution (Sigma-Aldrich). Cells were counted using the EVE automated cell counter (NanoEnTek) and seeded at 1 x 10^5 cells per mL in a 4 or 8 chamber µ-slide (ibidi) for cell imaging and left for 24 h at 37 °C. Cells were rinsed with 1X PBS (Gibco) and stained with B2P or B2PI at 10 µM and MB2P or MB2PI at 30 µM for 17 h. Cells were washed twice with PBS and covered with phenol red free RPMI medium (Gibco) for imaging. Live cells were imaged using a Leica SP8 confocal microscope with 63x oil immersion lens and heated stage at 37 °C.
(§6) Figure S23. Confocal imaging of 10 µM B2P in MCF-7 cells after (A-C) 4 and (D-F) 17 h […]
(§7) (1 picture or pasted object on this page, not shown here)
(§8) Figure S24. Confocal imaging of 10 µM B2PI in MCF-7 cells after (A-C) 4 and (D-F) 17 h […]
(§9) Localisation in Live Cell Monolayers
(§10) For co-localisation studies, LysoTracker Deep Red, ER Tracker Blue-White, PyLa-C17Cer or BODIPY 493/503 were added to CHO and MCF-7 cells after the 17 h incubation period with the BODIPY probes. Cells were washed twice with PBS and imaged in phenol red free media.
(§11) The BODIPY-perylene compounds were excited at their respective λabs and emission for co-localisation studies was collected from 580-640 nm, where the emission collection window was shortened depending on the λem of the BODIPY derivative being tested to ensure minimal overlap with the commercial dyes. Moreover, images were obtained by sequential sequencing with gating applied. The conditions for co-localisation studies are as follows: LysoTracker Deep Red (100 nM, 1 h) Ex 647, Em 665-685 nm; ER Tracker Blue/White (1 µM, 45 minutes)

[2] = test system: MCF‐7 cells; experiment: as above; format: cell-based; conditions: for Pearson Coefficient (r) with BODIPY 493/503: BODIPY 493/503 2 µM, 30 min; for Pearson Coefficient (r) with LysoTracker Deep Red: LysoTracker Deep Red 100 nM, 1 h; for Pearson Coefficient (r) with PyLa-C17Cer: PyLa-C17Cer 2 µM, 2 hours
Experimental: as §1, §2, §3, §4, §5, §6, §7, §8, §9, §10, §11

[3] = test system: MCF‐7 spheroids; experiment: Uptake in spheroids by confocal imaging; format: cell-based; conditions: 50 μM for 17 h

Row | SMILES | Pearson's coefficient for LD probe ([1]; CHO cells, lipid droplet probe not specified) | Pearson Coefficient (r) with BODIPY 493/503 [1] | Pearson Coefficient (r) with LysoTracker Deep Red [1] | Pearson Coefficient (r) with PyLa-C17Cer [1] | Pearson Coefficient (r) with BODIPY 493/503 [2] | Pearson Coefficient (r) with LysoTracker Deep Red [2] | Pearson Coefficient (r) with PyLa-C17Cer [2] | penetration and distribution in spheroids [3]
1 | CC1=C(c2ccc3c4cccc5cccc(c6cccc2c63)c54)C(C)=[N+]2C1=C(c1c(C)cc(C)cc1C)c1c(C)c(I)c(C)n1[B-]2(F)F [MB2PI] | < 0.3 | 0.23 ± 0.04 | 0.44 ± 0.07 | 0.33 ± 0.06 | 0.45 ± 0.06 and 0.45 | 0.59 ± 0.09 | 0.49 ± 0.04 and 0.49 | not taken up throughout the spheroid as effectively as B2P and B2PI
2 | CC1=C(c2ccc3c4cccc5cccc(c6cccc2c63)c54)C(C)=[N+]2C1=C(c1c(C)cc(C)cc1C)c1c(C)cc(C)n1[B-]2(F)F [MB2P] |  | 0.70 ± 0.03 | 0.59 ± 0.08 | 0.67 ± 0.09 | 0.66 ± 0.11 | 0.57 ± 0.06 | 0.67 ± 0.03 | not taken up throughout the spheroid as effectively as B2P and B2PI
3 | CC1=C(I)C(C)=[N+]2C1=C(c1ccccc1)c1c(C)c(-c3ccc4c5cccc6cccc(c7cccc3c74)c65)c(C)n1[B-]2(F)F [B2PI] |  |  | 0.65 ± 0.05 | 0.65 ± 0.04 |  | 0.71 ± 0.03 | 0.54 ± 0.05 | widespread distribution
4 | CC1=CC(C)=[N+]2C1=C(c1ccccc1)c1c(C)c(-c3ccc4c5cccc6cccc(c7cccc3c74)c65)c(C)n1[B-]2(F)F [B2P] |  | 0.78 ± 0.09 and 0.69±0.03 | 0.34 ± 0.04 | 0.69 ± 0.03 and 0.78±0.09 | 0.75 ± 0.07 | 0.75 ± 0.11 | 0.55 ± 0.07 | widespread distribution
